Assay results reported in PubChem BioAssay AID493014 (National Center for Advancing Translational Sciences (NCATS), 2011).
This is one part of the list. The main result of the screen is listed elsewhere. These columns were measured beside it and carry no call. Compounds called inactive in the main read-out are mostly missing here. Potencies come from curve fits of mixed quality, noted in brackets.

Experiment: qHTS Assay to Find Inhibitors of Chronic Active B-Cell Receptor Signaling
Details: ABC-DLBCL IkBa-CBG/CBR reporter, luminescence ratio (green luciferase fused to IkBa over red control in TMD8 lymphoma cells), 4 h
Summary of the method: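 TMD8 human ABC-DLBCL cells with doxycycline-inducible IκBα–green luciferase fusion and unfused red luciferase, in 0.5% FBS medium; compounds up to 46 uM, 4 h at 37C. Green/red luminescence ratio, filter-overlap corrected, fitted to concentration-response curves.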

[1] = measured here: CBR red luminescence, cell number
[2] = measured here: IkBa-CBG green luminescence

| SMILES | AC50 [1] | AC50 [2] |
| --- | --- | --- |
| O=C(Nc1ccc(Oc2ccccc2)cc1)c1cnc2n(c1=O)CCS2 | 0.461 µM [rising, full curve, poor fit] |  |
| COC(=O)C1=C(C)N(CC2CC2)C(=NCc2cccc(Cl)c2)N[C@H]1c1ccccc1 | 35.5 µM [falling, single point] |  |
| O=C(O)c1cccc(Nc2ncnc3ccccc23)c1 | 1.64 µM [falling, full curve, poor fit] |  |
| CC1(C)S/C(=N/N=C/c2ccco2)NC1=O | 25.9 µM [rising, single point] |  |
| Cc1ccc(S(=O)(=O)Nc2nccs2)cc1[N+](=O)[O-] | 1.12 µM [falling, partial curve, poor fit] |  |
| CCC(=O)Nc1ccc(NC(=O)c2c(C)nc3ccccn23)cc1 | 31.6 µM [rising, partial curve, poor fit] |  |
| CCS(=O)(=O)c1ccc2oc(Nc3ccc(OC)c(OC)c3)nc2c1 | 7.08 µM [rising, partial curve] |  |
| FC(F)(F)c1ccccc1NC(=S)N1CCN(Cc2ccc3c(c2)OCO3)CC1 | 35.5 µM [falling, single point] |  |
| O=C(/C=C/c1ccc([N+](=O)[O-])cc1)Nc1cccc(C(=O)Nc2ccccc2C(=O)O)c1 | 14.1 µM [falling, partial curve] |  |
| Cc1cccc(NC(=O)c2nc[nH]c2C(=O)NC2CCN(C(=O)OC(C)(C)C)CC2)c1 | 25.9 µM [rising, partial curve, poor fit] |  |
| O=C(NC1CCCCC1)NC12CC3CC(CC(C3)C1)C2 | 20 µM [rising, single point] |  |
| COc1ccc(C2C(=O)N(C3CCCCCC3)CC(=O)N2CCc2ccccc2)cc1 (stereo unspecified) | 7.08 µM [falling, full curve, poor fit] |  |
| COc1cccc(NC(=O)CCSc2ccc(C)cc2)c1 | 5.17 µM [falling, partial curve, poor fit] |  |
| CCN(C(=O)CSc1nnc(-c2ccccc2C)n1C)c1c(N)n(Cc2ccccc2)c(=O)[nH]c1=O | 20.6 µM [rising, single point] |  |
| COc1ccc(OC)c(NCc2cccn2-c2nnc(N3CCC(C)CC3)s2)c1 | 7.08 µM [rising, full curve, poor fit] |  |
| O=C(N/N=C/c1cccc(O)c1)c1cc2c(ccc3ccccc32)o1 | 5.01 µM [falling, full curve] |  |
| COc1ccc(CNCC(O)(c2ccc(Cl)cc2)c2ccc(Cl)cc2)cc1OC | 12.6 µM [falling, partial curve] |  |
| COc1ccccc1N1C(=O)CC(Sc2ccccc2N)C1=O (stereo unspecified) | 3.16 µM [falling, single point] |  |
| O=C(NNc1nc(-c2ccccc2)cs1)c1ccco1 | 6.51 µM [rising, single point] |  |
| Cn1nc(C(F)(F)F)c(C(=O)Nc2ccc(F)cc2F)c1Sc1cccc(Cl)c1 |  | 35.5 µM [rising, partial curve, poor fit] |
| O=c1oc(/C=C/c2ccc([N+](=O)[O-])s2)nc2ccccc12 | 35.5 µM [falling, single point] |  |
| c1csc(-c2nnc(N3CCCCCC3)c3ccccc23)c1 | 4.11 µM [rising, full curve] |  |

| SMILES | AC50 [1] | AC50 [2] |
| --- | --- | --- |
| COc1ccc(OC)c(/C=C2\SC(=S)N(C(C(=O)O)c3ccccc3)C2=O)c1 (stereo unspecified) | 35.5 µM [falling, single point] |  |
| Cc1cc(NC(=O)CSc2nnc(Nc3ccccc3C)s2)no1 | 6.31 µM [falling, single point] |  |
| COc1ccc(CN(Cc2ccc(C(=O)O)cc2)C(=S)Nc2ccccc2Cl)cc1OC | 2 µM [falling, partial curve, poor fit] |  |
| CN1C(=O)CSc2ccc(NC(=O)N3CCc4ccccc43)cc21 | 6.31 µM [rising, single point] |  |
| O=c1c(-c2ccc3c(c2)OCCO3)coc2cc(O)cc(O)c12 | 16.4 µM [falling, partial curve] |  |
| CC(C)COC(=O)c1cc(=O)[nH]c2ccccc12 | 0.501 µM [rising, full curve, poor fit] |  |
| COC(=O)CC1Oc2ccccc2N(Cc2ccc(C)cc2)C1=O (stereo unspecified) | 13 µM [rising, partial curve, poor fit] |  |
| N#Cc1ccc(C(=O)CSc2n[nH]c(=O)n2-c2cccnc2)cc1 | 0.112 µM [rising, full curve, poor fit] |  |
| CC(=O)N/N=C/c1cc([N+](=O)[O-])ccc1OCCOc1ccccc1 | 6.31 µM [rising, partial curve, poor fit] |  |
| COc1cc2nc(NC(=O)c3ccccc3)sc(=O)c2cc1OC | 31.6 µM [rising, single point] |  |
| CCOC(=O)c1ccc(N2C(=O)CC(N(C)CCc3ccc(OC)c(OC)c3)C2=O)cc1 (stereo unspecified) | 0.58 µM [rising, partial curve, poor fit] |  |
| CO/N=C(\Cn1ncc(N2CCCC2)c(Br)c1=O)c1ccc(Cl)cc1 | 29.1 µM [falling, single point] |  |
| Cc1oc(-c2ccc(Cl)cc2)nc1CS(=O)CC(=O)NCCCN1CCN(Cc2ccccc2)CC1 (stereo unspecified) | 7.08 µM [falling, partial curve] |  |
| CC1(C(=O)NNC(=S)NCc2ccco2)CC1(Cl)Cl (stereo unspecified) | 35.5 µM [rising, single point] |  |
| CCN1CCN(C(c2cccs2)C(C)NC(=S)NC2CCCCC2)CC1 (stereo unspecified) | 1.58 µM [rising, partial curve, poor fit] |  |
| O=C1NCCN(Cc2ccc(-c3ccccc3)cc2)C1CC(=O)N1CCN(CCO)CC1 (stereo unspecified) | 4.47 µM [rising, full curve, poor fit] |  |
| Cc1ccc(S(=O)(=O)N2CCN(c3ccc([N+](=O)[O-])c4cccnc34)CC2)cc1 | 0.259 µM [rising, full curve, poor fit] |  |
| CC1(C)CC(=O)C(C=Nc2cccnc2)=C(O)C1 | 12.6 µM [rising, partial curve, poor fit] |  |
| COc1cc(C(Nc2ccc3c(c2)OCO3)C(=O)NC2CCCCC2)cc(OC)c1OC (stereo unspecified) | 1.46 µM [rising, partial curve, poor fit] |  |
| COc1cc(OC)c(C(=O)OCC(=O)Nc2ccc(N3CCOCC3)cc2)cc1OC | 7.31 µM [rising, partial curve] |  |
| O=c1[nH]c(CSc2nnc(-c3ccccc3)n2-c2ccccc2)nc2ccccc12 | 14.6 µM [rising, partial curve, poor fit] |  |
| O=C1CC(c2ccccc2)CN1C(=O)c1cncc(Br)c1 (stereo unspecified) | 6.31 µM [rising, single point] |  |

| SMILES | AC50 [1] | AC50 [2] |
| --- | --- | --- |
| Cc1cc(C(F)F)nn1CC(=O)Nc1cc([N+](=O)[O-])ccc1F | 29.1 µM [falling, single point] |  |
| O=C(NNC(=O)c1ccc2ccccc2c1O)c1cccs1 | 2 µM [falling, full curve, poor fit] |  |
| S=c1[nH]nc(Cc2ccccc2)n1-c1ccccc1 | 14.6 µM [rising, partial curve, poor fit] |  |
| O=C(Nc1nc(-c2ccco2)c(-c2ccco2)s1)c1ccc(F)cc1F | 1.3 µM [falling, full curve] |  |
| CCCC(=O)c1ccc(N2CCN(S(=O)(=O)c3ccccc3)CC2)c(F)c1 | 5.01 µM [falling, full curve] |  |
| O=C(NCC1CC1)c1ccc2c3n(nc2c1)-c1ccccc1CO3 | 35.5 µM [falling, single point] |  |
| O=C(NOC(=O)c1c(F)cccc1Cl)c1ccc(Cl)c(Cl)c1 | 12.6 µM [rising, single point] |  |
| c1ccc(C2=NN(c3ccccc3)C(c3ccco3)C2)cc1 (stereo unspecified) | 0.0891 µM [rising, full curve, poor fit] |  |
| O=C(Cc1nnc(NC(=O)Nc2ccc(Cl)cc2)s1)NCc1ccccc1 | 32.6 µM [rising, partial curve, poor fit] |  |
| CCOc1ccc(CCNC(=O)c2ccc(CS(=O)(=O)Cc3ccccc3Cl)o2)cc1OCC | 35.5 µM [falling, single point] |  |
| C/C(=N\NC(=O)c1cc(Br)ccc1O)c1cccc(NC(=O)c2ccccc2F)c1 | 1.58 µM [falling, full curve] |  |
| CCOC(=O)c1c(-c2ccccc2)csc1/N=C/C1C(=O)CCCC1=O | 16.4 µM [falling, single point] | 20.6 µM [rising, single point] |
| COc1ccccc1/C=C/C=N/NC(=O)CCn1nnc2ccccc21 | 1.3 µM [falling, full curve, poor fit] |  |
| Oc1cccc2ccc(Nc3ccccn3)nc12 | 25.9 µM [falling, single point] | 5.8 µM [rising, partial curve, poor fit] |
| Cc1ccc(C(=O)NCCc2ccc(F)cc2)s1 | 15.8 µM [falling, single point] |  |
| Cc1cc(NC(=O)CS(=O)(=O)c2cn(Cc3ccccc3Cl)c3ccccc23)no1 | 14.6 µM [falling, single point] |  |
| Cc1nn(C(C)C(=O)NCCCc2ccccc2)c(=O)c2cc3occc3n12 (stereo unspecified) | 20.6 µM [rising, single point] |  |
| Cc1nc2ccccc2n1CSc1ccccc1 | 1.64 µM [rising, full curve] |  |
| CSc1ccccc1OCc1cc(C(=O)NCCC2CCCCO2)no1 (stereo unspecified) | 35.5 µM [falling, single point] |  |
| C=CCC1(C#N)C(=S)NC(C)=C(C(=O)OCC)C1c1ccccc1 (stereo unspecified) | 0.1 µM [rising, full curve, poor fit] |  |

Among those listed so far, 3 have bromine.

| SMILES | AC50 [1] | AC50 [2] |
| --- | --- | --- |
| CO/N=C(\Cn1ncc(N2CCCC2)c(Br)c1=O)c1ccc(Cl)cc1 | 29.1 µM [falling, single point] |  |
| O=C1CC(c2ccccc2)CN1C(=O)c1cncc(Br)c1 (stereo unspecified) | 6.31 µM [rising, single point] |  |
| C/C(=N\NC(=O)c1cc(Br)ccc1O)c1cccc(NC(=O)c2ccccc2F)c1 | 1.58 µM [falling, full curve] |  |

Reprinted at random: 2 compounds from above, in no set order.

| SMILES | AC50 [1] | AC50 [2] |
| --- | --- | --- |
| O=C(NOC(=O)c1c(F)cccc1Cl)c1ccc(Cl)c(Cl)c1 | 12.6 µM [rising, single point] |  |
| O=C(NC1CCCCC1)NC12CC3CC(CC(C3)C1)C2 | 20 µM [rising, single point] |  |
